Source: PubChem BioAssay AID493014 (National Center for Advancing Translational Sciences (NCATS), 2011)
Where “and” joins values, the source holds several entries; their conditions need not be identical. Equal entries are not always repeated. This is one part of the list. These are further read-outs of the screen, such as a control signal, another cell line or another target. No call is given for them. Compounds called inactive in the main read-out are mostly missing here. Potencies come from curve fits of mixed quality, noted in brackets.

Assay: qHTS Assay to Find Inhibitors of Chronic Active B-Cell Receptor Signaling
Conditions: ABC-DLBCL IkBa-CBG/CBR reporter, luminescence ratio (green luciferase fused to IkBa over red control in TMD8 lymphoma cells), 4 h
Method in brief: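 TMD8 human ABC-DLBCL cells with doxycycline-inducible IκBα–green luciferase fusion and unfused red luciferase, in 0.5% FBS medium; compounds up to 46 uM, 4 h at 37C. Green/red luminescence ratio, filter-overlap corrected, fitted to concentration-response curves.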

[1] = measured here: CBR red luminescence, cell number
[2] = measured here: IkBa-CBG green luminescence

| SMILES | AC50 [1] | AC50 [2] |
| --- | --- | --- |
| COCCCNc1nc2ccccc2nc1NS(=O)(=O)c1ccc(C)cc1 | 20 µM [falling, partial curve] | – |
| CCOC(=O)C(=CNc1nc(-c2ccc3ccccc3c2)cs1)C(=O)OCC | 3.55 µM [rising, single point] | – |
| COc1cc2c(cc1OC)CN(c1ccc(C(N)=O)cc1[N+](=O)[O-])CC2 | 12.6 µM [rising, partial curve, poor fit] | 14.1 µM [falling, partial curve, poor fit] |
| Cc1ccc2nc(Nc3ccc(C)c(Cl)c3)c3nncn3c2c1 | 0.891 µM [rising, full curve, poor fit] | – |
| CCN(CC)C(=O)Cn1cc(C(=O)C(=O)NCC2COc3ccccc3O2)c2ccccc21 (stereo unspecified) | 2.51 µM [falling, full curve] | – |
| Cc1cccc(C(=O)Nc2cc(NC(=O)c3cccs3)ccc2C)c1 | – | 11.2 µM [falling, partial curve, poor fit] |
| CCN(CCCNC(=O)CCNC(=O)Cn1ccc2ccccc2c1=O)c1ccccc1 | 0.92 µM [rising, full curve, poor fit] | – |
| C1=C(c2ccco2)N2CCN=C2S1 | 0.794 µM [rising, partial curve, poor fit] | – |
| CCC(CC)C1C(C#N)=C(N)Oc2n[nH]c(C)c21 (stereo unspecified) | 5.8 µM [falling, partial curve] | – |
| CCCCCCSc1ccc(-c2nc3ccc(Cl)cn3c2NC2CCCCC2)cc1 | 18.4 µM [falling, single point] | – |
| COc1ccc2cc(-c3ccsc3)ncc2c1 | 20.6 µM [falling, single point] | – |
| Cc1[nH]c2ccc(C(=O)O)cc2c1C | 29.1 µM [falling, single point] | – |
| O=C(N/N=C/c1cn[nH]c1-c1ccc(Cl)cc1)c1ccc([N+](=O)[O-])cc1 | 35.5 µM [falling, single point] | – |
| c1ccc(CN2CCC(N=C3NN=C(c4ccc5c(c4)OCCO5)CS3)CC2)cc1 | 17.8 µM [falling, single point] | – |
| S=C(NCC1CCCO1)c1ccc(Br)cc1 (stereo unspecified) | 28.2 µM [rising, single point] | – |
| COc1ccc(NC(=O)N2CCn3c2nc2ccccc23)cc1 | 3.16 µM [falling, partial curve] | – |
| CCOC(=O)C1(Cc2ccccc2)CCN(CC2CC=CCC2)CC1 (stereo unspecified) | 35.5 µM [falling, single point] | – |
| O=S1(=O)CCC(NC(=S)Nc2ccc3ccccc3c2)C1 (stereo unspecified) | 0.562 µM [rising, full curve, poor fit] | – |
| O=C1/C(=C/c2cccc(Br)c2)SC(=S)N1CCC(=O)N(CCO)c1ccccc1 | 25.1 µM [falling, single point] | – |
| COc1ccc2cc(-c3ccn[nH]3)ccc2c1 | 6.31 µM [falling, single point] | – |
| O=C(CSc1nc2ccccc2c(=O)n1-c1ccccc1F)NC1CCS(=O)(=O)C1 (stereo unspecified) | 5.8 µM [rising, full curve, poor fit] | – |

| SMILES | AC50 [1] | AC50 [2] |
| --- | --- | --- |
| Cc1cccc(-c2noc(CSc3ccccc3)n2)c1 | 1.12 µM [rising, partial curve] | – |
| COc1ccc(/C=C2\SC(=S)N(CCC(=O)NCCc3ccc(O)cc3)C2=O)cc1 | 3.55 µM [falling, full curve] | – |
| Cc1ccc2cc3c(N)c4c(C)ccc(C)c4nc3nc2c1 | 4.47 µM [falling, partial curve] | – |
| CC(C)(C)c1ccc(NC(=O)CC2(C(F)(F)F)OCCO2)cc1 | 0.794 µM [rising, partial curve, poor fit] | – |
| C[C@@H]1CN([C@H](C)CO)C(=O)c2cc(NC(=O)c3ccncc3)ccc2O[C@@H]1CN(C)C(=O)Nc1ccccc1 | 0.58 µM [rising, full curve] | – |
| Cc1cc(NC(=O)CSc2nnc(-c3ccccc3)o2)no1 | 35.5 µM [falling, single point] | 35.5 µM [falling, single point] |
| Cc1cc(NC(=O)CCN2C(=O)/C(=C\c3ccccc3Cl)SC2=S)no1 | 0.447 µM [falling, full curve, poor fit] | – |
| CC(=O)Nc1ccc(CN2CCC(Oc3ccc(C(=O)N4CCCC4)cc3)CC2)cc1 | 35.5 µM [rising, single point] | – |
| CCN1CCN(Cc2ccc(NC(=O)c3ccc(C)c(/C=C/c4cnc(Nc5cc(N6CCNCC6)nc(C)n5)cn4)c3)cc2C(F)(F)F)CC1 | 11.2 µM [falling, partial curve] | – |
| c1ccc(NNC2=NCCS2)cc1 | 10 µM [rising, partial curve, poor fit] | – |
| CCCCCCN1Cc2ccccc2C1 | 11.2 µM [rising, partial curve] | – |
| Cn1c(SCC(=O)c2ccccc2)nnc1-c1ccc(O)cc1 | 29.1 µM [falling, single point] | 32.6 µM [rising, partial curve, poor fit] |
| O=C(NCc1ccc2c(c1)OCO2)c1sccc1Br | 3.16 µM [falling, single point] | – |
| Cc1ccc(Cl)c(NC(=O)CN(C)CC(=O)Nc2ccc(F)c(F)c2F)c1Cl | 2.51 µM [rising, partial curve, poor fit] | – |
| CCc1ccc(CNC(=O)C2CCCN(c3nnc(C)c4c(C)n(-c5ccccc5)nc34)C2)cc1 (stereo unspecified) | 14.1 µM [falling, single point] | – |
| Oc1ccc(/C=N/n2c(C3CCCCC3)n[nH]c2=S)c(O)c1 | 35.5 µM [rising, single point] | – |
| C/C(=N\Nc1nc(C)cc(-c2ccccc2)n1)c1cccc(N)c1 | 12.6 µM [falling, partial curve] | – |
| COc1ccc(Nc2ncnc3ccc(Br)cc23)c(OC)c1 | 4.47 µM [falling, partial curve, poor fit] | – |
| Cc1ccc(C(=O)N/N=C/c2nc3ccccc3n2C)cc1 | 1 µM [rising, full curve] | – |
| COc1ccccc1NC(=O)c1cc(Br)ccc1Cl | 22.4 µM [rising, single point] | – |
| CN(c1ccccc1)c1nc(N)c([N+](=O)[O-])c(N2CCCC2)n1 | 35.5 µM [rising, single point] | – |

Gathered by group, those above containing a thiophene ring, fused or not (three)

| SMILES | AC50 [1] | AC50 [2] |
| --- | --- | --- |
| Cc1cccc(C(=O)Nc2cc(NC(=O)c3cccs3)ccc2C)c1 | – | 11.2 µM [falling, partial curve, poor fit] |
| COc1ccc2cc(-c3ccsc3)ncc2c1 | 20.6 µM [falling, single point] | – |
| O=C(NCc1ccc2c(c1)OCO2)c1sccc1Br | 3.16 µM [falling, single point] | – |

(cont.)

| SMILES | AC50 [1] | AC50 [2] |
| --- | --- | --- |
| COc1ccc(N/C=C(\C#N)c2ccc(OCCCF)cc2)cc1 | 6.51 µM [falling, single point] | – |
| CC(C)(C)NC(=O)COC(=O)/C=C/c1ccccc1[N+](=O)[O-] | 16.4 µM [rising, single point] | – |
| CN(C)c1nc(N)nc(CSc2n[nH]c(-c3ccccc3)n2)n1 | 2.59 µM [rising, partial curve, poor fit] | – |
| N#Cc1nc(COc2ccc(Cl)cc2)oc1N1CCCC1 | 17.8 µM [rising, single point] | – |
| CN(CC(=O)Nc1n[nH]c(=S)s1)S(=O)(=O)c1cccc2cccnc12 | 31.6 µM [rising, single point] | – |
| Cc1cc(NCCCn2ccnc2)n2ncc(-c3ccccc3)c2n1 | 15.8 µM [falling, single point] | – |
| C(=N\Nc1nc(Nc2ccccc2)nc(N2CCCCC2)n1)/c1ccco1 | 35.5 µM [falling, single point] | – |
| Cc1ccc(-n2c(-c3ccc(Br)cc3)c[n+]3c2CCc2ccc4cccnc4c2-3)cc1 | 15.8 µM [falling, single point] | – |
| O=C(Nc1cccc2ccccc12)c1onc2c1CCCC2 | 0.058 µM [falling, full curve, poor fit] | – |
| O=C(Nc1ccccc1Cl)C(=O)c1cn(CC(=O)N2CCOCC2)c2ccccc12 | 0.282 µM [falling, full curve, poor fit] | – |
| O=C(CSCc1ccccc1)Nc1cccc(C(=O)Nc2ccccc2C(=O)O)c1 | 35.5 µM [falling, single point] | – |
| COC(=O)[C@@]1(Cc2ccc(F)cc2)[C@H]2c3cc(C(=O)N(C)C)n(Cc4ccc(OC(F)(F)F)cc4)c3C[C@H]2CN1C(=O)c1ccccc1 | 23.1 µM [falling, single point] | – |
| CCCCOc1ccc(C(C)NC(=O)CN2C(=O)CSc3ccc(S(=O)(=O)N4CCOCC4)cc32)cc1 (stereo unspecified) | 0.562 µM [rising, full curve, poor fit] | – |
| CN(C)S(=O)(=O)c1ccc(C(=O)Nc2cccnc2)cc1 | 9.2 µM [rising, single point] | – |
| CN(C(=O)c1ccccc1C(=O)OCC(=O)NC(=O)NC(C)(C)C)C1CCCCC1 | 35.5 µM [rising, single point] | – |
| CSCCC(NC(=O)c1ccc(Cl)cc1)C(=O)OCC(=O)c1ccc[nH]1 (stereo unspecified) | 20.6 µM [rising, partial curve, poor fit] | – |
| COc1ccc(C(=O)OCC(=O)N2CCc3ccccc3C2)cc1OC | 23.1 µM [rising, single point] | – |
| CCOC(=O)c1ccc(C(=O)NNC(=O)C2C3C=CC(C3)C2C(=O)O)cc1 (stereo unspecified) | 5.01 µM [falling, full curve, poor fit] | – |
| Cc1ccc(-n2cccc2/C=C2/NC(=O)N(CC(=O)Nc3cccc(C)c3)C2=O)cc1 | 32.6 µM [rising, partial curve, poor fit] | – |
| Cc1ccc2oc(C(=O)N(C)CCC(O)c3ccccc3)c(C)c2c1 (stereo unspecified) | 3.98 µM [rising, partial curve, poor fit] | – |
| Cc1cccc(CNc2ncnc3ccc(-c4ccc5c(c4)OCO5)cc23)c1 | 20.6 µM [falling, partial curve, poor fit] and 14.6 µM [falling, partial curve] | – |
